Results of single-concentration screens

Amino acid sequences for entries named in this document (tags omitted). Residues count along the entry.
UniProt P9WPC5, whole entry: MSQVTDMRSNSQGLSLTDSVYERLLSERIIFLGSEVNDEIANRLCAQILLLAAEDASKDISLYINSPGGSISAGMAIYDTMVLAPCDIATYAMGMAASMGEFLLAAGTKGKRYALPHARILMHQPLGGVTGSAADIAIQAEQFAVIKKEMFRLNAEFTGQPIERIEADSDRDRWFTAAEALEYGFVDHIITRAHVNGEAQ
UniProt P9WPC3, whole entry partner: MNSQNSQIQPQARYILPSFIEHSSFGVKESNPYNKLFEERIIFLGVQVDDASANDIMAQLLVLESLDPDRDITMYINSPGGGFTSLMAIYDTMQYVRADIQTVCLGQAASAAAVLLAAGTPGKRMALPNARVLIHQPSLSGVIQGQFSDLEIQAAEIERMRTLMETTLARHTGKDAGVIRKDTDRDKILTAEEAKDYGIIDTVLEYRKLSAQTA
UniProt P9WNZ1, whole entry: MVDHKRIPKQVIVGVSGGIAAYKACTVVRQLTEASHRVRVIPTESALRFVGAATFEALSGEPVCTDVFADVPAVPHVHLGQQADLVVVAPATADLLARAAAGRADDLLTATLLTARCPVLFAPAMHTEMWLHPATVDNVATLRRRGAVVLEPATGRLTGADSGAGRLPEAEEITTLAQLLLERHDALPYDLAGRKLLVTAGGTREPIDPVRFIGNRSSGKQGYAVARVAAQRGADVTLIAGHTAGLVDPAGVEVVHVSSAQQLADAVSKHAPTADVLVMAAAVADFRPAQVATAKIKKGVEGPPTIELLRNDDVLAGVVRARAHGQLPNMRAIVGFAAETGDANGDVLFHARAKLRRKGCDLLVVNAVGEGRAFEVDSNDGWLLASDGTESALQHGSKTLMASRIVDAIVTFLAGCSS
UniProt A4I591, 1-473: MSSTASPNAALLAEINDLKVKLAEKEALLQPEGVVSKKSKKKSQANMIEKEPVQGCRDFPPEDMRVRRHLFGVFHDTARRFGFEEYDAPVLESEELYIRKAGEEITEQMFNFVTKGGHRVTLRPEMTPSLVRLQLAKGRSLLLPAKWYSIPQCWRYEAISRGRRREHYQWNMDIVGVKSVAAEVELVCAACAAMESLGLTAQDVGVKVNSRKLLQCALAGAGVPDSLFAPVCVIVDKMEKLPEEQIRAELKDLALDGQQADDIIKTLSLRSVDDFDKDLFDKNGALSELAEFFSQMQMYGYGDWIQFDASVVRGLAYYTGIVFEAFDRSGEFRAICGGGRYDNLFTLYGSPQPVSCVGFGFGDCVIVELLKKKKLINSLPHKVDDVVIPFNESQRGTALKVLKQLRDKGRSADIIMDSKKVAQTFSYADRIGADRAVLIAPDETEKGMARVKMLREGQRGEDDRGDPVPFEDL

The values are deposited in ChEMBL (CHEMBL3988442, “University of Dundee, Small-Polar-MMV Screening Library” (2021)).

Results are given as percent effect. The controls that fix the scale are not given in the record; negative values are as filed. The compounds are a random part of those screened. Two or more numbers in one place are separate tests of the same structure; such repeats can differ widely. A dash means the value is not listed here; it may have been measured.

ClpP1P2: 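ClpP1P2, Mycobacterium tuberculosis (UniProt P9WPC5 and UniProt P9WPC3). Protease assay of ClpP1P2, read by the AMC dye that it sets free. Concentration: 50 µM. Direction is inferred from only a few compounds that gave an IC50; most scored high, so higher reads as stronger inhibition. Most other retested compounds had strongly negative values. Size under these conditions: about 69,000 compounds, about 10 of them at 50% or above in at least one test.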
CoaBC: 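Coenzyme A biosynthesis protein CoaBC, Mycobacterium tuberculosis (UniProt P9WNZ1). Enzyme assay of CoaBC with a phosphate dye (Biomol Green) read at 650 nm. Concentration: 30 µM. Higher reads as stronger inhibition, judged from the few compounds that gave an IC50. Most strong results did not repeat in a second test. About 67,000 compounds were tested under these conditions; 0.06% (about 40) showed 50% or more at least once.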
Leishmania in macrophages: 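Cell assay of Leishmania donovani living inside macrophages; the read-out is not stated. Tested at 30 µM. Higher reads as stronger inhibition (inferred: compounds with an IC50 in retests scored well above the rest). Size under these conditions: about 69,000 compounds, about 1,000 of them at 50% or above in at least one test.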
LiHisRS: 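Enzyme assay of histidyl-tRNA synthetase; the read-out is not stated. Target: Histidine-tRNA ligase, Leishmania infantum (UniProt A4I591). Compounds at 30 µM. Higher reads as stronger inhibition (inferred: compounds with an IC50 in retests scored well above the rest). The assay is labelled LdHisRS but filed under L. infantum. About 69,000 compounds were tested under these conditions; 0.6% (about 410) showed 50% or more at least once.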

Compound	ClpP1P2	CoaBC	Leishmania in macrophages	LiHisRS
Cc1ccc(-c2nc(CN3CCN(CC(=O)N(C)C)CC3)cs2)o1	-6.498	10.81	18.67	-4.348
O=C(c1ccc2[nH]ccc2c1)N1CCCSCC1CN1CCCC1 (stereo not drawn)	-5.076	1.449	5.933	19.18
CSc1ccc(OC(C)C(=O)Nc2cc[nH]n2)cc1 (stereo not drawn)	-8.352	11.74	23.96	6.806
CCS(=O)(=O)N1CCOC2(CCCN(c3ccccn3)C2)C1.O=C(O)C(F)(F)F (stereo not drawn)	-	-	-17.97	-
Cc1ccc(S(=O)(=O)N2C[C@H]3C[C@H](NC(=O)C(C)C)[C@H]3C2)cc1	4.467	7.311	-	22
c1ccc(-n2ccc(CN3CCCC3Cn3cccn3)n2)cc1 (stereo not drawn)	-11.02	3.953	18.23	-3.125
O=C(N1CCCC1)N1CCOCC2(CCN(Cc3cccs3)C2)C1 (stereo not drawn)	-14.43	-9.001	-	12.5
Cc1cc(CN2C[C@@H]3COC[C@]3(CN(C)C)C2)no1	-5.202	5.913	-	3.008
CC(=O)c1ccc(NC(=O)N[C@H](C(=O)O)C(C)C)cc1	-18.4	-3.632	-22.39	21.74
Cc1ccc(OCCCNC(=O)NC(C)c2nncn2C)cc1 (stereo not drawn)	10.69	2.564	39.01	37.33
Cc1c(C(=O)NCC(F)(F)F)nnn1-c1ccccc1Cl	-0.3308	-	-4.82	29.58
Cc1cncc(C(=O)N2CCO[C@H]3[C@H](OCCN(C)C)CC[C@@H]32)c1	-7.863	7.732 and 36.54	-	13.89
Cc1csc(N2CCN(C(=O)CCn3cncn3)CC2)n1	-0.8933	-7.712	20.79	19.1
CCCS(=O)(=O)N1CCC2(CCC(=O)N(CCc3ccccc3)C2)CC1	-10.41	3.713	-6.273	18
Cc1cc(C)nc(Nc2ccc(C3CCCCN3)cn2)n1 (stereo not drawn)	10.17	3.325	-0.08093	4.225
CCc1nccn1C1CCCN(C(=O)c2ccc3[nH]cnc3c2)C1 (stereo not drawn)	-5.765	3.914	17.55	17.14
Cc1cnc(C(=O)N2C[C@H]3CN(Cc4cccnc4)C[C@H]3C2)cn1	5.978	-2.521	-	20
Cc1cnc(NC2CCc3c(ccc(=O)n3CC3CC3)C2)nc1 (stereo not drawn)	2.617	-0.7246	36.69	13.13
CCCc1nn(Cc2csc(CC)n2)c(=O)o1	-8.503	1.2	-5.16	2.564
COc1ccc(C(=O)N(C)Cc2cc(C)on2)c(OC)c1	-10.5	3.579	3.819	15.09
CCOc1nnc(CN2CCC(c3cc4ccccc4[nH]3)CC2)s1	-4.857	3.871	-5.786	14.47
CCS(=O)(=O)N1CCN(CCOC)c2ncccc2C1	-1.495	2.195	27.69	7.547
CNC(=O)C1Cn2ccnc2C2(CCN(Cc3cccs3)CC2)O1.O=C(O)C(F)(F)F.O=C(O)C(F)(F)F (stereo not drawn)	-	-	22.52	-
Cc1cc(OCC(=O)NCc2ccc(F)cc2)nnc1C	-8.217	2.066	-0.1774	13.39
Cn1nc(C#N)c2c1CN(C(=O)c1cccnc1)CCC2	-8.297	-2.662	-	-2.913
Cc1cc(NC(=O)NCC(O)COc2ccccc2)n(C)n1 (stereo not drawn)	-49.5	7.928	8.295	9.174
[H][C@@]12CCN(Cc3sccc3C)[C@]1([H])CC[C@@H](C(=O)N1CCCO1)O2	-	-	20.55	-
CCC1=N[C@@]2(CC[C@@H]3CN(CC(=O)N(C)C)C[C@@H]32)C(=O)N1CC1CC1	7.118	3.634	-	11.65
O=S(=O)(NCCNc1ccc(-n2cccc2)nn1)c1cccs1	-6.009	-4.44	2.974 and 4.328	12.17
CCC(C)NC(=O)c1ccc(CNC(=O)CCC(C)C)cc1 (stereo not drawn)	4.408	3.688	-3.789	31.25
Cc1nnc(C2Cc3ccccc3CN2Cc2nc(C(C)C)no2)o1 (stereo not drawn)	-38.21	2.611	-13.45	22.12
Cc1nccn1C1CCCN(C(=O)CCOCC(F)(F)F)C1 (stereo not drawn)	-15.62	-7.161	-11.85	0
Cc1cc(C)n(CC2CN(Cc3cc(C)on3)CCO2)n1 (stereo not drawn)	-34.62	6.65	28.82	18.35
CSCCCNC(=O)C1CCC(=O)N(C2CCCC2)C1 (stereo not drawn)	-3.806	5.444	20.28	18.18
CN(CCc1ccccn1)C(=O)C1Cc2ccccc2CN1C (stereo not drawn)	-21.43	-1.485	11.77	8
CC1CCCCN1C(=O)COc1nc(C(C)(C)C)no1 (stereo not drawn)	2.905	-0.994	0.1685	9.333
O=C(N[C@@H]1CNCCC[C@H]1O)c1ccc(OCc2ccccc2)cc1	-4.681	-11.96	26.4	22.22
Cc1ccc(CN(CCCn2ccnc2)Cc2c[nH]cn2)s1	-10.62	-0.2778	-	11.11
O=C(NCCCN1CCN(c2ncccn2)CC1)Nc1ccccn1	7.851	-7.158	37.55	25
Cc1nc(C2CCN(Cc3ncc[nH]3)CC2)no1.O=CO	-	-	10.55 and -5.338	-
Cc1cncc(C2CCCN(Cc3ccncc3)C2)n1 (stereo not drawn)	-13.33	0.7282	10.01 and 7.606	-1.449
Cc1ccc(C(N)=O)cc1NCCOc1cccc(C#N)c1	0.5568	-2.41	11.01	10.45
Cc1cccc2nc(CN3CCCC3Cn3cccn3)cn12 (stereo not drawn)	-67.94	5.483	22.3	22.41
CN1CCN(C)C(c2nnc3ccc(C(=O)N4CCOCC4)cn23)C1.O=C(O)C(F)(F)F.O=C(O)C(F)(F)F (stereo not drawn)	-	-	18.9	-
Cc1nccc(CNS(=O)(=O)N(C)Cc2ccc(Cl)cc2)n1	1.866	3.187	1.782	21.92
N#Cc1cccc(CN2CCN(Cc3cscn3)CC2)c1	-0.1749	-16.63	-7.441	14.88
COCC(=O)N1CCN(c2ncnc3cccc(F)c23)CC1	9.094	10.85	-8.452	11.67
[H][C@]12CC[C@]([H])(CN(C(=O)c3cscn3)C1)N(Cc1c(C)noc1C)C2=O	-	-	-58.66	-
COc1ccc2c(c1)nc1n2[C@@H](CN(C2CCC2)C2CCC2)COC1	-4.118	5.643	29.82	19.44
O=C(O)C(F)(F)F.O=C(O)C(F)(F)F.c1cncc(OCC2CC3(CCN(CC4CC4)CC3)CO2)c1 (stereo not drawn)	-	-	21.62	-
O=C(CNC(=O)Nc1c(F)cc(F)cc1-c1ccccc1)NC1CC1	-15.06	3.874	1.016	10.87
CC1(C(=O)Nc2ccc(F)c(-n3cccc3)c2)CCOCC1	4.59	0	6.208	12.28
CC(C)c1nc(C2CCCN(C(=O)CCCn3cncn3)C2)no1 (stereo not drawn)	3.711	3.677	12.77	26.19
COc1ccccc1NC(=O)CC(C)NCc1scnc1C (stereo not drawn)	-16.9	2.564	26.83	1.37
CNC(=O)c1sccc1S(=O)(=O)Nc1ccc(C)cc1	-4.994	6.198	8.63	8
CC(C)c1ccc(NC2CCCN(Cc3ccncc3)C2)cc1 (stereo not drawn)	-29.53	3.354	38.54	7.5
Cc1nc(C(=O)N2CCc3c(nc(-c4ccncc4)[nH]c3=O)C2)cs1	-19.52	2.632	-23.09	15.24
CCN(C(=O)C1=NN(c2ccccc2)C(=O)CN1)c1ccccc1	-1.996	-2.871	17.2	15
CC(=O)Nc1nc(C(=O)N2CCCC2Cn2cccn2)cs1 (stereo not drawn)	-36.65	4.439	1.772	-0.885
Cn1ccc(C(=O)N2CCC(Cc3cccc4ncccc34)CC2)n1	-2.11	4.854	7.427 and -8.724	4.348
CC(=O)N1CCN(CCNS(=O)(=O)c2cc(F)ccc2C)CC1	11.87	-3.49	29.8	11.24
O=C(c1cccnc1)N1CCc2ncnc(C3CCOC3)c2CC1 (stereo not drawn)	8.909	16.06	-	10.95

For reference, 4 entries once more:

Compound,ClpP1P2,CoaBC,Leishmania in macrophages,LiHisRS
CSCCCNC(=O)C1CCC(=O)N(C2CCCC2)C1 (stereo not drawn),-3.806,5.444,20.28,18.18
CN1CCN(C)C(c2nnc3ccc(C(=O)N4CCOCC4)cn23)C1.O=C(O)C(F)(F)F.O=C(O)C(F)(F)F (stereo not drawn),-,-,18.9,-
CC(C)c1nc(C2CCCN(C(=O)CCCn3cncn3)C2)no1 (stereo not drawn),3.711,3.677,12.77,26.19
Cc1ccc(-c2nc(CN3CCN(CC(=O)N(C)C)CC3)cs2)o1,-6.498,10.81,18.67,-4.348